In the supplement of paper PMC10849652:
This is one part of the list.

Protein sequences, listed by entry. Tags and fused reporters are not part of them. Lines headed by an entry give the natural chain unless they say otherwise; changes in a name come on top.
UniProt Q1ZZU3: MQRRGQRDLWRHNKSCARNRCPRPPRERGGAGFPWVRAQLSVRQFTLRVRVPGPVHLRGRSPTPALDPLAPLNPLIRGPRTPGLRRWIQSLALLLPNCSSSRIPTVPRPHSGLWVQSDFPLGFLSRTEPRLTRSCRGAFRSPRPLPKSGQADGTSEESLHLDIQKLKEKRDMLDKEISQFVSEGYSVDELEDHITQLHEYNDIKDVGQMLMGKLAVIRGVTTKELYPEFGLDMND
UniProt Q92844: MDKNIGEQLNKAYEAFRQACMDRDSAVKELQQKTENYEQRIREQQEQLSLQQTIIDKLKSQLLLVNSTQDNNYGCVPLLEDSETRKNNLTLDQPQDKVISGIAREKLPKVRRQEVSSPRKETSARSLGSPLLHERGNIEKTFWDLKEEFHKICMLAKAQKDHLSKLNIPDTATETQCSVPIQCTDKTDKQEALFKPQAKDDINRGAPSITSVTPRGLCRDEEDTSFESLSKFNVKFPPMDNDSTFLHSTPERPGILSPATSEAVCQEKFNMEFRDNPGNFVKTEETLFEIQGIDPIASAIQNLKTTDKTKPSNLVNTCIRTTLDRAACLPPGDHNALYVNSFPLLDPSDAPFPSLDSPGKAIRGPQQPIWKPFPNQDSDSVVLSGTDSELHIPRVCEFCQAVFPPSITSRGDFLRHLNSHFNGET
UniProt Q9UBI4: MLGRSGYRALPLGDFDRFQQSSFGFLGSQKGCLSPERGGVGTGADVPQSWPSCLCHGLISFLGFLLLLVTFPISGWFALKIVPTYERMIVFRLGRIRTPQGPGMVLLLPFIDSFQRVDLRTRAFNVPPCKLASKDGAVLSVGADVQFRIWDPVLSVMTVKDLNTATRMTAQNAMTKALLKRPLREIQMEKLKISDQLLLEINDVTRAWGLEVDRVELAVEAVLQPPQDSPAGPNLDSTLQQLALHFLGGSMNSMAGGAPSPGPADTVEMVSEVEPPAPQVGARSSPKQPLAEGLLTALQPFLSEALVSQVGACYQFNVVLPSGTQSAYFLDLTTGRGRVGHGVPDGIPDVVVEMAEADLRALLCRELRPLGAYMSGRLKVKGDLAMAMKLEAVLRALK
UniProt Q17R31: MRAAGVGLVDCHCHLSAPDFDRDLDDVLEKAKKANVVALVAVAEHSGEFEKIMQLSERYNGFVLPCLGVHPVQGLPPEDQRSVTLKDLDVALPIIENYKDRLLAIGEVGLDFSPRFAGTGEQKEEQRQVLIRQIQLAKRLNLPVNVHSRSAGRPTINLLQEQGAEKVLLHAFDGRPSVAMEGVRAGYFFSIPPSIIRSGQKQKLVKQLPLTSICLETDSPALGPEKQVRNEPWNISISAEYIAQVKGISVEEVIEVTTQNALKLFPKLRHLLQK
UniProt O43759: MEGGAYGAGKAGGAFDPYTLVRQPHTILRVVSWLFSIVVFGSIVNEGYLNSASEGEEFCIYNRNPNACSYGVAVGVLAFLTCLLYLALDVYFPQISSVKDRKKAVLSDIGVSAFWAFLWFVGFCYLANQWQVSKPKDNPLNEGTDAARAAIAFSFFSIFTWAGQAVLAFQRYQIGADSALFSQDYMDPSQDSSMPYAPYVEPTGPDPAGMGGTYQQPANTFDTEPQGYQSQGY
UniProt Q9NYJ8: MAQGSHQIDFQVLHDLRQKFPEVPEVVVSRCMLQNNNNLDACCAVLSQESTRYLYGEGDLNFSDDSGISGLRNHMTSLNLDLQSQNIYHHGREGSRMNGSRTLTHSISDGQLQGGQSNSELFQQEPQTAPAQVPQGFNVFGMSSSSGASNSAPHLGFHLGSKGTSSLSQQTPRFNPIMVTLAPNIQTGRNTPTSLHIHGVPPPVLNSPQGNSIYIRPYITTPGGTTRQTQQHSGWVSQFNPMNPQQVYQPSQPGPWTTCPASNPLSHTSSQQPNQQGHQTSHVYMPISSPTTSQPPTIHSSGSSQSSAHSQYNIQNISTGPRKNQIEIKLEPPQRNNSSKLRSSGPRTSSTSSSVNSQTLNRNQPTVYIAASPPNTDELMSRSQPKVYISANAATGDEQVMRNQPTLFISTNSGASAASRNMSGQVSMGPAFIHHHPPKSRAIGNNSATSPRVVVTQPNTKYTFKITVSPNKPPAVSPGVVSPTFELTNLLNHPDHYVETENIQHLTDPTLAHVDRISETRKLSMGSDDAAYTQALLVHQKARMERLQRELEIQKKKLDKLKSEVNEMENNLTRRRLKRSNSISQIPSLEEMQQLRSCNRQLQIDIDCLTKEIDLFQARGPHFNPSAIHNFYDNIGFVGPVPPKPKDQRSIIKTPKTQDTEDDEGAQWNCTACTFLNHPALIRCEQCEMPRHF
UniProt O15056: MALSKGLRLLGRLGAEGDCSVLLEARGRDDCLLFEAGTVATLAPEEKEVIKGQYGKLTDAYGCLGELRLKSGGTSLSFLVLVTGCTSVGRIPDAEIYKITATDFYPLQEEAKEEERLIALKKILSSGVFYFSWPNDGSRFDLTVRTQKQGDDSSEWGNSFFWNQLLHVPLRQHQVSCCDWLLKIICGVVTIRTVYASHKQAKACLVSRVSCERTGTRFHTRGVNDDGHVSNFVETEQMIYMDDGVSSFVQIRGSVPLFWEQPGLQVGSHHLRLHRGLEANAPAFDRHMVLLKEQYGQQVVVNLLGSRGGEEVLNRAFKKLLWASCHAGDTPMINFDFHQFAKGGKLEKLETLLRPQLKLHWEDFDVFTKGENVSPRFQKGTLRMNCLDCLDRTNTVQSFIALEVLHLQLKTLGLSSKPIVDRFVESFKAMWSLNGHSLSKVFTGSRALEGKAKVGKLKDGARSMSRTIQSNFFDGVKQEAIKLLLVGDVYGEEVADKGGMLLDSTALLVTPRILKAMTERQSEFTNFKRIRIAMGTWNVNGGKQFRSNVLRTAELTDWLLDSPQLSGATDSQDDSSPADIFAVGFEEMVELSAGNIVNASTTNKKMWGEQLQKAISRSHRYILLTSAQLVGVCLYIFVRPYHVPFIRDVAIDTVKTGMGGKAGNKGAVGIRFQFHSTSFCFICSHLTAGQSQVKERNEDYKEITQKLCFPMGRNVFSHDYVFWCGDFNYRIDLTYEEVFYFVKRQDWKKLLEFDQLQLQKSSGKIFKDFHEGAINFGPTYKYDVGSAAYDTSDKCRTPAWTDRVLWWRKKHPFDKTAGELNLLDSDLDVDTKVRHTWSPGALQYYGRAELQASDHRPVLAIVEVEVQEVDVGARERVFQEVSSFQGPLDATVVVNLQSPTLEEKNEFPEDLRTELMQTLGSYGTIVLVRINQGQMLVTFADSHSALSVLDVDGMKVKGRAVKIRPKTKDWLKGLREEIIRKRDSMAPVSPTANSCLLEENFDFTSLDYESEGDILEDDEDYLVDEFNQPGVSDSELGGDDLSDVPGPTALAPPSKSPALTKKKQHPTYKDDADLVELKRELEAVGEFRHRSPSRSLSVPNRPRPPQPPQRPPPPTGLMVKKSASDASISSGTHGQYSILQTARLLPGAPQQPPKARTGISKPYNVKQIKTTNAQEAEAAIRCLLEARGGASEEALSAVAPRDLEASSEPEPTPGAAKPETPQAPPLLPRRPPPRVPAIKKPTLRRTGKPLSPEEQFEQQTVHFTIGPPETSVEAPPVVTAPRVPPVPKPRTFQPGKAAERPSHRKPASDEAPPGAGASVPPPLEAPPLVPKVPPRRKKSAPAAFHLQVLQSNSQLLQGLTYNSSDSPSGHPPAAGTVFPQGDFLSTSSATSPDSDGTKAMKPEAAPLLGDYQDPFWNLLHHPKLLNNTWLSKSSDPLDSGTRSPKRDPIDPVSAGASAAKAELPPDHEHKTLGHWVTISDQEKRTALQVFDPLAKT
UniProt O75528: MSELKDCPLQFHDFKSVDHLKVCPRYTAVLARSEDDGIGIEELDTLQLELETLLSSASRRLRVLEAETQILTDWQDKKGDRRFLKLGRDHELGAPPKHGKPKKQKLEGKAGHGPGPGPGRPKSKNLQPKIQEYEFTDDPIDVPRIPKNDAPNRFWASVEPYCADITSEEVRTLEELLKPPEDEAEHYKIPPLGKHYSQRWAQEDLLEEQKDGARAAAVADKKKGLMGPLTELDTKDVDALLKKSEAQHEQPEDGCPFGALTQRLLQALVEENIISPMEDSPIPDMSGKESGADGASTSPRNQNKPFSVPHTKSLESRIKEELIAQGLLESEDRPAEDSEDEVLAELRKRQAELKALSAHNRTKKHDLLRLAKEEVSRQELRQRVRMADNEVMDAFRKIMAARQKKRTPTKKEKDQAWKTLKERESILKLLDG
UniProt O00268, whole entry, looked up: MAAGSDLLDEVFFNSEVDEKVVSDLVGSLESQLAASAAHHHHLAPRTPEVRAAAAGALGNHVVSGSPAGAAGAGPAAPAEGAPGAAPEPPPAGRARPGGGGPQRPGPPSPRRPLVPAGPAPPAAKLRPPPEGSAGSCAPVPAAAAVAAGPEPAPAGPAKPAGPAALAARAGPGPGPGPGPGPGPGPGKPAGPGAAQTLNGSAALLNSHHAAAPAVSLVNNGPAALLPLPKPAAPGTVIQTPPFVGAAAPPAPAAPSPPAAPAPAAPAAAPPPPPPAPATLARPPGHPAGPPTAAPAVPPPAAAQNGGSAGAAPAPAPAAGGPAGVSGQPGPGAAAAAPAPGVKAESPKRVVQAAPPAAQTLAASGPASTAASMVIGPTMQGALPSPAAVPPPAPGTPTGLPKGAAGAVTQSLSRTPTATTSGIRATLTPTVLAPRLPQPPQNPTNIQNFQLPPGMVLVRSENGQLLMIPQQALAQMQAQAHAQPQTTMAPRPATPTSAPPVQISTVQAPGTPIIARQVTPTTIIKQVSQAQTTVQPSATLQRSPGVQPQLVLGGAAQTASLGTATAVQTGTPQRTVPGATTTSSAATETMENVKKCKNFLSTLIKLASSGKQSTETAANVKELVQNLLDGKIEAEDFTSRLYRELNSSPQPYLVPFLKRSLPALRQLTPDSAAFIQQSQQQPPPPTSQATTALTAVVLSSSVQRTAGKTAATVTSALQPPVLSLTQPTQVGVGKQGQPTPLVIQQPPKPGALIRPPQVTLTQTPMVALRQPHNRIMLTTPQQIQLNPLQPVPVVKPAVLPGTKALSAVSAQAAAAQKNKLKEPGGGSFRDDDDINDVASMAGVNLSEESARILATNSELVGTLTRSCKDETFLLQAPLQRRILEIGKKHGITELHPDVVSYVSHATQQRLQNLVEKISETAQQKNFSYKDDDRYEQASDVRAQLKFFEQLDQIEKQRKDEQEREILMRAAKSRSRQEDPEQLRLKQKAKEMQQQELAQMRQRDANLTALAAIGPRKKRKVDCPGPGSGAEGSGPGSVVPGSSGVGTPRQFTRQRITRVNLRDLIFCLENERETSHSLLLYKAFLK
UniProt Q9BXI6: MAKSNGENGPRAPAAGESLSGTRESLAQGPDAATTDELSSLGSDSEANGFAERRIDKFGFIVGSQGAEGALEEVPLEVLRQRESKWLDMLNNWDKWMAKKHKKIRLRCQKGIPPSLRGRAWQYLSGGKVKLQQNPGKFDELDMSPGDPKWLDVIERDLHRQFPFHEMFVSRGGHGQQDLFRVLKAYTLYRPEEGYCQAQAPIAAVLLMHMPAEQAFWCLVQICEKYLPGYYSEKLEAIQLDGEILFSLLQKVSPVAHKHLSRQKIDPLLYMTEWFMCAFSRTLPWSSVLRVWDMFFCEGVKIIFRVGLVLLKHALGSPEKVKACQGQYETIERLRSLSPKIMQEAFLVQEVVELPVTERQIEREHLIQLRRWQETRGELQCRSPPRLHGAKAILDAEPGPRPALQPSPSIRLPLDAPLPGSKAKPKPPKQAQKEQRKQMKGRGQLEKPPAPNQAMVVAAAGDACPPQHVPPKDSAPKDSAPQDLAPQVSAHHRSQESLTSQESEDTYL
UniProt Q13043: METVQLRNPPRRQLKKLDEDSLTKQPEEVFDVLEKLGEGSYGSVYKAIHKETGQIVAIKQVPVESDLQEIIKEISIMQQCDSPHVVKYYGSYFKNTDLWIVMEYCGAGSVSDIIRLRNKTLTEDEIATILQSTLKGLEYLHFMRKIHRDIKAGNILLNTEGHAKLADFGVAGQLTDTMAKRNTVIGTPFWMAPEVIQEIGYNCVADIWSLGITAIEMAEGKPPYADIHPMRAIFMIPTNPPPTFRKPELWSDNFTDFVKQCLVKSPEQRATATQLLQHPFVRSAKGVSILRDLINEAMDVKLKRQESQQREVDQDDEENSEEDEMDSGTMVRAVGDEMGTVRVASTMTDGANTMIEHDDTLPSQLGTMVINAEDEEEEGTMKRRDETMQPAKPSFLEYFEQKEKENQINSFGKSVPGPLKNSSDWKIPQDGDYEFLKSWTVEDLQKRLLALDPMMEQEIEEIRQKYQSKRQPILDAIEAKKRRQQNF
UniProt Q9UNK0: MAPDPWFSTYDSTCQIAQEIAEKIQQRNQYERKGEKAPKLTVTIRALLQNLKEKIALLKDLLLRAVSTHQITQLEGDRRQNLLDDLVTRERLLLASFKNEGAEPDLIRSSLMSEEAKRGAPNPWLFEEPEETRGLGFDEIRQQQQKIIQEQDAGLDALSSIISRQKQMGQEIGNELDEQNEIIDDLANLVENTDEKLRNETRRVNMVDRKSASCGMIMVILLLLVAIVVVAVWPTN

Tests used:
Assay in all cases: log2 fold change, soluble protein after heating vs DMSO (PISA); higher = thermal stabilisation; K562 cells, 10 uM, 30 min; active = over 0.2 and 3.5 SD of the protein, either way, in both replicates (recomputed)
[1] = compound: C1=CC=C(C=C1)[C@H](COC2=CC3=C(C=C2)NC(=O)N3)NC(=O)C4=CC=CN(C4=O)CC5=CC(=C(C=C5)F)F
Summary of the method: (§1)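 Values are thermal stability changes relative to control samples and are taken from duplicates. They are stated as log2 fold changes. Before quantification by TMTpro 16plex LC-MS/MS with equalised channel sums, K562 cells at 2×10^6 cells/mL were treated with 10 μM compound for 30 min, heated in aliquots for 3 min across 48°C-58°C, pooled, extracted in PBS with 0.5% NP-40 at 4°C, and centrifuged at 21,000xg for 90 min to give the soluble supernatant.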

[2] = compound: CC1=C(SC2=C1C(=N[C@H](C3=NN=C(N32)C)CC(=O)N)C4=CC=C(C=C4)Cl)C
Summary of the method: as §1

[3] = compound: Cc1sc2c(c1C)C(c1ccc(Cl)cc1)=N[C@@H](CC(=O)OC(C)(C)C)c1nnc(C)n1-2
Summary of the method: as §1

[4] = compound: c1ccc([C@@H]2C[C@H]2NC2CCNCC2)cc1
Summary of the method: as §1

[5] = compound: CC1=C2C(=CC=C1)N=C(N(C2=O)C3=CC=CC=C3C)CN4C=NC5=C(N=CN=C54)N
Summary of the method: as §1

Measured: log2 fold change

TANGO6 (UniProt Q9C0B7)
inactive: [1] -0.139 | [2] 0.052 | [3] 0.018 | [4] -0.086

SYTL4 (UniProt Q96C24)
inactive: [1] -0.057 | [2] 0.014 | [3] 0.03 | [4] 0.028

SUN1 isoform 9 (UniProt O94901)
inactive: [2] -0.114 | [5] 0.013 | [3] 0.109 | [4] 0.018

TAX1BP1 (UniProt Q86VP1)
inactive: [1] -0.008 | [2] 0.09 | [5] 0.042 | [3] 0.029 | [4] -0.007

TAOK2 (UniProt Q9UL54)
inactive: [3] 0.026

SZRD1 (UniProt Q7Z422)
inactive: [1] 0.018 | [2] 0.026 | [5] 0.013 | [3] 0.069 | [4] 0.059

SUGT1 isoform 2 (UniProt Q9Y2Z0)
inactive: [1] 0.011 | [5] 0.042 | [3] 0.037

SWI5 (UniProt Q1ZZU3)
inactive: [1] 0.076 | [2] 0.103 | [5] 0.167 | [4] -0.062

TANK (UniProt Q92844)
inactive: [1] -0.001 | [2] -0.093 | [5] -0.019 | [3] 0.02 | [4] 0.026

STYX (UniProt Q8WUJ0)
inactive: [3] -0.082

TAF11 (UniProt Q15544)
inactive: [1] -0.025 | [2] -0.073 | [3] 0.007 | [4] 0.149

STOML1 (UniProt Q9UBI4)
inactive: [5] 0.21 | [3] 0.004

2 entries picked at random from those above, as already listed:
SWI5 (UniProt Q1ZZU3)
inactive: [1] 0.076 | [2] 0.103 | [5] 0.167 | [4] -0.062

TANK (UniProt Q92844)
inactive: [1] -0.001 | [2] -0.093 | [5] -0.019 | [3] 0.02 | [4] 0.026

Next part

TATDN3 isoform 3 (UniProt Q17R31)
inactive: [1] 0.042 | [2] 0.002 | [5] 0.029 | [3] 0.056 | [4] 0.036

SYNGR1 isoform 3 (UniProt O43759)
inactive: [3] -0.095

TAB2 (UniProt Q9NYJ8)
inactive: [5] 0.115 | [3] 0.031

STXBP3 (UniProt O00186)
inactive: [1] -0.062 | [2] 0.059 | [5] 0.046 | [3] 0.107 | [4] -0.064

SUPT5H isoform 2 (UniProt O00267)
inactive: [5] -0.015

TAF6L (UniProt Q9Y6J9)
inactive: [2] -0.209 | [3] 0.048 | [4] 0.073

SYNJ2 (UniProt O15056)
inactive: [1] 0.06 | [5] 0.046

TADA3 (UniProt O75528)
inactive: [1] -0.03 | [2] 0.016 | [5] -0.009 | [3] 0.045 | [4] 0.011

SYMPK (UniProt Q92797)
inactive: [1] -0.127 | [2] 0.034 | [5] 0.101 | [3] -0.006 | [4] 0.02

TAF4 (UniProt O00268)
inactive: [1] 0.01 | [5] 0.133 | [3] -0.093

TBC1D10A (UniProt Q9BXI6)
inactive: [1] 0.079 | [5] 0.1 | [3] 0.05

SUCO (UniProt Q9UBS9)
inactive: [2] 0.017 | [5] 0.042 | [3] 0.034 | [4] 0.007

SUMF1 isoform 3 (UniProt Q8NBK3)
inactive: [5] -0.062 | [3] 0.034

STK35 (UniProt Q8TDR2)
inactive: [2] -0.016 | [4] -0.015

STK4 (UniProt Q13043)
inactive: [1] -0.008 | [2] 0.088 | [5] 0.057 | [3] 0.005 | [4] -0.001

STX8 (UniProt Q9UNK0)
inactive: [1] 0.015 | [2] -0.062 | [5] -0.034 | [3] 0.019 | [4] 0.138

TBC1D12 (UniProt O60347)
inactive: [2] 0.148 | [5] -0.219 | [3] -0.047 | [4] -0.151

TAF12 (UniProt Q16514)
inactive: [1] -0.059 | [5] -0.086 | [3] -0.059
